Laboratory results: PubChem BioAssay AID1259322 (Peter MacCallum Cancer Centre, 2017)

- Screen: 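Confirm kinase hits connecting PAR2, a protease receptor, with TRPV4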 (follow-up of hits)
- Cells: human HEK293 cells with stable inducible TRPV4
- Knock-down reagent: single siRNA against human genes
- Treatment: PAR2 activation; agonist identity, dose and timing not stated
- Detection: 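Fura-2 imaging of cytosolic calcium over time, first peak marking PAR2 and later plateau marking TRPV4 opening; both relative to mock on each plate, mean of two plates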
- Scale: TRPV4 plateau calcium, % of mock: higher = stronger PAR2-dependent TRPV4 calcium entry; PAR2 peak calcium, % of mock: higher = stronger direct PAR2 calcium response
- Rule for the call: 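a knock-down counts as active when the PAR2 peak exceeds 79% of mock yet the TRPV4 plateau is below 90% of mock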
In all, the deposit lists 208 reagents; shown is a random part of them. Over the whole deposit, 72 (35%) are marked active. 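Four separate siRNAs per kinase gene, 52 genes in all; PAR2 agonist unnamed, with its dose and timing unknown.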 Unmarked entries are inactive. The numbers tell different reagents against one gene apart. Not stated in the record: the amount of reagent, the time to read-out.

target	reagent no.	TRPV4 plateau calcium, % of mock	PAR2 peak calcium, % of mock
WNK4 (GeneID 65266)	1	70.8 (active)	83.9
WNK4 (GeneID 65266)	2	82.3 (active)	101
WNK4 (GeneID 65266)	3	87.4 (active)	101
WNK4 (GeneID 65266)	4	78.4	75.3
MLKL (GeneID 197259)	1	73.5 (active)	92.4
MLKL (GeneID 197259)	2	73.9 (active)	86.7
MLKL (GeneID 197259)	3	64.8	73.4
MLKL (GeneID 197259)	4	92.3	98
NEK2 (GeneID 4751)	1	98	93.8
NEK2 (GeneID 4751)	2	78.9 (active)	81.4
NEK2 (GeneID 4751)	3	68.9	67.4
NEK2 (GeneID 4751)	4	76.2 (active)	80.6
FLT4 (GeneID 2324)	1	100	96.4
FLT4 (GeneID 2324)	2	83.5	73.8
FLT4 (GeneID 2324)	3	99.2	103
FLT4 (GeneID 2324)	4	71.3	59.3
MAPK9 (GeneID 5601)	1	97.6	102
MAPK9 (GeneID 5601)	2	92.8	92.2
MAPK9 (GeneID 5601)	3	81.3 (active)	92.9
MAPK9 (GeneID 5601)	4	98.7	110
MAPK13 (GeneID 5603)	1	63.6 (active)	83.1
MAPK13 (GeneID 5603)	2	87.9 (active)	99.8
MAPK13 (GeneID 5603)	3	88.2 (active)	104
MAPK13 (GeneID 5603)	4	92.4	102
PKM (GeneID 5315)	1	64.6	67.7
PKM (GeneID 5315)	2	104	93.1
PKM (GeneID 5315)	3	94.8	100
PKM (GeneID 5315)	4	85.6 (active)	92.8
ACVRL1 (GeneID 94)	1	77 (active)	83.3
ACVRL1 (GeneID 94)	2	81.3 (active)	87.3
ACVRL1 (GeneID 94)	3	75.1 (active)	81.3
ACVRL1 (GeneID 94)	4	96	105
CMPK1 (GeneID 51727)	1	98.3	95.3
CMPK1 (GeneID 51727)	2	71	75.6
CMPK1 (GeneID 51727)	3	75.5	76.1
CMPK1 (GeneID 51727)	4	75.7	78.7
EFNB3 (GeneID 1949)	1	79.2 (active)	84.7
EFNB3 (GeneID 1949)	2	73.4 (active)	79.7
EFNB3 (GeneID 1949)	3	69.3	65.6
EFNB3 (GeneID 1949)	4	63	73

Part of the list above, limited to “PAR2 peak calcium, % of mock”:
MAPK13 (GeneID 5603) #3	104 (active)
MAPK13 (GeneID 5603) #4	102
PKM (GeneID 5315) #1	67.7
PKM (GeneID 5315) #2	93.1
PKM (GeneID 5315) #3	100
PKM (GeneID 5315) #4	92.8 (active)

More reagents follow:
target	reagent no.	TRPV4 plateau calcium, % of mock	PAR2 peak calcium, % of mock
PRPS1 (GeneID 5631)	1	102	97.3
PRPS1 (GeneID 5631)	2	63.4	58.7
PRPS1 (GeneID 5631)	3	82 (active)	88.9
PRPS1 (GeneID 5631)	4	88.7 (active)	84
RPS6KB1 (GeneID 6198)	1	93.5	95.6
RPS6KB1 (GeneID 6198)	2	117	113
RPS6KB1 (GeneID 6198)	3	92.1	99.6
RPS6KB1 (GeneID 6198)	4	104	96
TAF1L (GeneID 138474)	1	82.9	77.6
TAF1L (GeneID 138474)	2	125	108
TAF1L (GeneID 138474)	3	90.6	88.1
TAF1L (GeneID 138474)	4	95.7	105
CDK15 (GeneID 65061)	1	71.6	73.2
CDK15 (GeneID 65061)	2	107	101
CDK15 (GeneID 65061)	3	89.6 (active)	88.1
CDK15 (GeneID 65061)	4	93.5	96.6
KSR1 (GeneID 8844)	1	86.1 (active)	96
KSR1 (GeneID 8844)	2	95.1	106
KSR1 (GeneID 8844)	3	75.9	60.1
KSR1 (GeneID 8844)	4	81.2	76.7
ITPK1 (GeneID 3705)	1	54.8	60.2
ITPK1 (GeneID 3705)	2	80.1 (active)	92.5
ITPK1 (GeneID 3705)	3	72.2 (active)	89.5
ITPK1 (GeneID 3705)	4	83.2 (active)	95
STK39 (GeneID 27347)	1	79.6 (active)	84.7
STK39 (GeneID 27347)	2	65.8	60.4
STK39 (GeneID 27347)	3	87.9 (active)	90.4
STK39 (GeneID 27347)	4	60.6	69.3
PDK3 (GeneID 5165)	1	94.5	95.3
PDK3 (GeneID 5165)	2	79.9 (active)	82.7
PDK3 (GeneID 5165)	3	89.8 (active)	97.9
PDK3 (GeneID 5165)	4	99.6	99.3
STRADA (GeneID 92335)	1	84.7 (active)	96.4
STRADA (GeneID 92335)	2	79.2 (active)	79.1
STRADA (GeneID 92335)	3	63.2	75.9
STRADA (GeneID 92335)	4	68	70.3
BUB1 (GeneID 699)	1	73.4	76.6
BUB1 (GeneID 699)	2	70.3 (active)	82.3
BUB1 (GeneID 699)	3	74 (active)	86.2
BUB1 (GeneID 699)	4	70.8 (active)	81.3
SRPK1 (GeneID 6732)	1	95.3	87.4
SRPK1 (GeneID 6732)	2	83.8 (active)	97.5
SRPK1 (GeneID 6732)	3	96.7	98.4
SRPK1 (GeneID 6732)	4	98.1	101
